Test results published in PubChem BioAssay AID1487 (National Center for Advancing Translational Sciences (NCATS), 2009).
The other results are listed elsewhere or left out. Shown are side measurements of this screen, not its main read-out; they come without a call. Compounds called inactive in the main read-out are mostly missing here. Potencies come from curve fits of mixed quality, noted in brackets.

Assay: qHTS Assay for Modulators of Lamin A Splicing
Details: HeLa LMNA splicing GFP/RFP minigene ratio, 48 h
Method in brief: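 Read-out is the ratio of GFP to DsRed2 object intensity, acquired by 488 nm laser-scanning cytometry on HeLa lamin A-EGFP minigene reporter cells. Compound incubation 48 hrs at 37 °C in Opti-MEM with 2% FBS; DMSO 0.5% final.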

[1] = measured here: GFP splicing reporter channel
[2] = measured here: RFP viability control channel

| SMILES | AC50 [1] | AC50 [2] |
| --- | --- | --- |
| CC(C)CNC(=O)c1cccc(NC(=O)Cc2ccc(Br)cc2)c1 | 0.0398 µM [rising, full curve, poor fit] | 20 µM [rising, single point] |
| C=C(C)c1cccc(C(C)(C)NC(=O)Nc2ccc(C(C)=O)cc2)c1 | – | 35.5 µM [rising, single point] |
| O=C(O)c1ccc(Cl)c(S(=O)(=O)Nc2ccccc2N2CCOCC2)c1 | 6.31 µM [rising, partial curve, poor fit] | 0.02 µM [rising, full curve] |
| C/C=C/c1ccc(OCC(=O)Nc2ccc(OC)c(OC)c2)c(OC)c1 | – | 35.5 µM [rising, single point] |
| Cc1sc(NC(=O)c2ccco2)c(C(=O)c2ccc(Cl)cc2)c1C | 35.5 µM [rising, single point] | 35.5 µM [rising, single point] |
| CCOc1ccccc1C(=O)N(C)Cc1cc2ccccc2[nH]c1=O | – | 7.08 µM [rising, partial curve, poor fit] |
| Cc1nn(Cc2ccccc2Cl)c2sc(C(=O)Nc3nccs3)cc12 | 6.31 µM [rising, single point] | – |
| CCOC(=O)C1=C(NC(=S)NC(=O)c2ccccc2)c2ccccc2CC1(C)CC (configuration not stated) | 12.6 µM [rising, partial curve] | 11.2 µM [rising, partial curve] |
| Cc1cccc(-c2nc(CS(=O)CC(=O)NC3CCCC3)c(C)o2)c1 (configuration not stated) | – | 15.8 µM [rising, single point] |
| O=c1cc(-c2ccccc2)nc(SCc2ccccc2F)[nH]1 | – | 0.0501 µM [falling, partial curve] |
| Cc1sc(N)c(C(=O)c2ccccc2)c1C | 0.00891 µM [falling, full curve, poor fit] | 0.0355 µM [falling, full curve, poor fit] |
| O=C(CS(=O)(=O)c1ccccc1)N1CCc2ccccc21 | 0.158 µM [rising, full curve, poor fit] | – |
| COc1ccc(-c2csc(NS(=O)(=O)c3ccc([N+](=O)[O-])cc3)n2)cc1 | 0.0282 µM [rising, full curve, poor fit] | 22.4 µM [rising, single point] |
| COc1cc2c(cc1NC(=O)c1ccc(C)c([N+](=O)[O-])c1)oc1ccccc12 | – | 25.1 µM [rising, single point] |
| N#Cc1nc(COc2ccc(-c3ccccc3)cc2)oc1NCc1cccnc1 | 12.6 µM [rising, partial curve] | 35.5 µM [rising, single point] |
| O=C(Oc1ccc2c(=O)c(Oc3ccc4ccccc4c3)coc2c1)c1ccco1 | – | 20 µM [rising, partial curve] |
| COCc1nc2ccccc2n1CCOc1ccccc1OC | – | 31.6 µM [rising, single point] |
| CN1C(=S)N(c2cccnc2)C(=O)/C1=C\c1ccc(C(C)(C)C)cc1 | – | 0.112 µM [rising, full curve, poor fit] |
| N=C1S/C(=C\c2ccco2)C(=O)N1c1nccs1 | – | 15.8 µM [rising, partial curve] |

Pulled by compound from the list above, 2 records:

| SMILES | AC50 [1] | AC50 [2] |
| --- | --- | --- |
| C/C=C/c1ccc(OCC(=O)Nc2ccc(OC)c(OC)c2)c(OC)c1 | – | 35.5 µM [rising, single point] |
| CCOc1ccccc1C(=O)N(C)Cc1cc2ccccc2[nH]c1=O | – | 7.08 µM [rising, partial curve, poor fit] |

Further structures

| SMILES | AC50 [1] | AC50 [2] |
| --- | --- | --- |
| Cc1cccc(N=C2NC(=O)S/C2=C\c2ccco2)c1 | – | 22.4 µM [rising, single point] |
| Cc1cccc(NC(=O)C2CCCN(S(=O)(=O)c3cccc4nsnc34)C2)c1 (configuration not stated) | – | 12.6 µM [rising, single point] |
| COc1ccc(N2CCN(C(=O)CCc3ccc(S(=O)(=O)NCC(C)C)cc3)CC2)cc1 | – | 11.2 µM [rising, partial curve] |
| CCc1nn2c(=O)cc(COC(=O)c3cccc(NC(=O)COc4ccccc4F)c3)nc2s1 | – | 35.5 µM [rising, single point] |
| Cc1cccc(NC(=O)CSc2nc(C)cc(C)c2C(=O)Nc2ccc(Cl)cc2)c1 | 5.62 µM [rising, partial curve, poor fit] | – |
| CCOC(=O)N1CCN(C(=O)c2ccc(C)c(S(=O)(=O)Nc3ccccc3)c2)CC1 | 4.47 µM [rising, partial curve, poor fit] | 17.8 µM [rising, partial curve, poor fit] |
| CCOc1ccccc1N(C)C(=O)c1cc(S(=O)(=O)NCc2ccc(C)cc2)ccc1F | – | 35.5 µM [falling, single point] |
| Nc1ncnc(NNC(=O)CNC(=O)c2c(F)cccc2Cl)c1[N+](=O)[O-] | – | 6.31 µM [falling, partial curve, poor fit] |
| O=S(=O)(Nc1ccc2c(c1)nc1n2CCOC1)c1ccc(Cl)cc1 | 12.6 µM [rising, single point] | 14.1 µM [rising, single point] |
| OCc1ccccc1O | 0.0141 µM [falling, full curve, poor fit] | – |
| COc1ccccc1N1CCN(CC(=O)c2c(C)[nH]c3cc(C)ccc23)CC1 | – | 7.94 µM [rising, partial curve, poor fit] |
| CC1CN(CC(=O)Nc2ccccc2Sc2ccccc2)CC(C)O1 (configuration not stated) | – | 22.4 µM [rising, single point] |
| CC(c1ccon1)N(C)C(=O)c1ccc(OC2CCN(C(=O)C3CC3)CC2)cc1 (configuration not stated) | – | 35.5 µM [falling, single point] |
| N.N.N.N.N.N.N.N.N.N.N.N.N.N.O.O.[Cl-].[Cl-].[Cl-].[Cl-].[Cl-].[Cl-].[Ru].[Ru].[Ru] | – | 2.51 µM [falling, single point] |
| CCOc1ccc(-c2nc(CSCC(=O)NCCc3ccccc3)c(C)o2)cc1 | 0.355 µM [rising, full curve, poor fit] | – |
| CC1Cc2nc(SCC(=O)N3CCCc4ccccc43)n(C)c(=O)c2S1 (configuration not stated) | – | 11.2 µM [rising, partial curve, poor fit] |
| CCN1CCN(c2cc(C)c3cc(NC(=O)c4cc(OC)c(OC)c(OC)c4)ccc3n2)CC1 | – | 28.2 µM [rising, single point] |
| COc1ccc(NC(=O)CN2CCN(c3nc(-c4ccc(F)cc4)cs3)CC2)c(OC)c1 | 0.891 µM [falling, full curve, poor fit] | 1.41 µM [falling, partial curve] |
